Values of other authors as cited in patent US7807877B2, “Genetic sequences having methyltransferase activity and uses therefor” (International Flower Developments Pty. Ltd., priority 2002, dated 2010).
For at least one compound, name, drawing or mass did not settle the structure.

Conditions: in 0.01% HCl/MeOH (v/v); data reviewed by Haslam; cited from earlier work

COc1cc(-c2[o+]c3cc(O)cc(O)c3cc2O)cc(OC)c1O [Malvidin]
λmax nm* wavelength of maximum absorption: 542 nm
